Test results published in publication PMC7472080.
Results are given in words; binding and its absence hold for the method and conditions named. Binding calls can cover weak binding; strength is not graded here.

Target: Major Tail Protein (MTP) of lactococcal phage p2 (Lactococcus phage p2)
Test: negative-staining EM structure; topological model of the resting baseplate built here by fitting crystal structures and a modelled Dit-2 into the earlier nsEM map of the native p2 virion (EMD-1699)

B1: distal tail protein (Dit, ORF15) of lactococcal phage p2 (protein, UniProt D3WAD3 2-298)
chain: VRQYKIHTNLDGTDDKVWDVTNGKVRFYQPSNLGLQSTNNIWQSNGIGVMGTRSITQPQIEFKLETFGESLEENYQLMKDFVNDILSKKFVTLEYQTEIFQVYADLALADVTKTEGYGKNGTFSEKITFDIITKWYTYENLTFDKIQNGKVIAGMSKIYGGTAPGNYKYIKGTSYTYYGESDIDRLSRWDIKEEIFSFMGILYPKLPKTPAGVRFLDDIGNEYTAIVFKTEQVQDYILINTDVNDETYQGWKGTTALNLFPVMDFERYRTRIIEKGQMELINLSKAEFKIKRKADFV
In the case of B1, the binding is reported as “binds”.
